In PubChem BioAssay AID720535 (National Center for Advancing Translational Sciences (NCATS), 2013):
Screen size: about 1,600 compounds; about 420 (26%) were called active. The inconclusive results got no clear call from the source; some entries with a clear call stand among them for comparison. Calls come from the whole dose curve; as a rule, active = well fitted inhibition curve with a large enough effect; inconclusive = small, poorly fitted or top-dose-only effect; inactive = flat fitted curve, though single readings scatter. Where the call is inconclusive, the potency comes from a doubtful curve fit.

test: qHTS for Inhibitors of TGF-b: Cytotox Counterscreen for Cherry Picks; conditions: HepG2 CAGA-GFP viability, ATP luminescence, 18 h, cells stimulated with TGF-beta, 500 pg/mL; activity, negative = cytotoxicity: at 46.1 µM (top of the series); note: nearly all actives have a fitted effect of over 70% in size
How it was run: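 Luminescence-based viability (CellTiter-Glo, 10 min RT) measured after HepG2 CAGA-GFP cells had been incubated 18 h at 37 °C with compound and 500 pg/mL TGF-beta.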
Potency is the fitted concentration of half-maximal effect.

| SMILES | activity, negative = cytotoxicity | Potency |
| --- | --- | --- |
| O=S(=O)(Nc1ccc(C(O)(C(F)(F)F)C(F)(F)F)cc1)c1cccc2cccnc12 | inactive: -20.5% | – |
| Cc1ccc(NCCCn2cnc3c(OCc4ccccc4)ncnc32)cc1C | – | inconclusive: 23.1 µM [inhibitor, single point] |
| CC1=C(C(=O)N(C(C)C)C(C)C)CC(CC(=O)NCc2cccc3ccccc23)C(=O)N1Cc1ccc(C(C)(C)C)cc1 (centres undefined) | – | inconclusive: 20.6 µM [inhibitor, single point] |
| Cc1cccc(C)c1N(CC(O)Cn1c2ccccc2c2ccccc21)S(C)(=O)=O (centres undefined) | – | inconclusive: 29.1 µM [inhibitor, single point] |
| Cc1ccccc1OCC(O)Cn1c(=N)n(Cc2ccccc2)c2ccccc21 (centres undefined) | – | inconclusive: 29.1 µM [inhibitor, single point] |
| COc1cccc2c1C(=O)c1c(O)c3c(c(O)c1C2=O)C[C@@](O)(C(=O)CO)C[C@@H]3O[C@H]1C[C@H](N)[C@H](O)[C@H](C)O1 | – | active: 0.517 µM |
| Oc1ccc(C[C@H]2CNC(=S)N2CC2CCCN2C[C@H](Cc2ccc(O)cc2)N2C[C@H](Cc3ccc(O)cc3)N(CC3CCCCCC3)C2=S)cc1 (some centres undefined) | – | inconclusive: 23.1 µM [inhibitor, single point] |
| O=[N+]([O-])c1cc2no[n+]([O-])c2cc1N1CCCCC1 | – | active: 6.51 µM |
| COC(=O)[C@@]1(Cc2ccc(OC)cc2)[C@H]2c3cc(C(=O)N4CCCC4)n(Cc4c(CO)[nH]cc(C)c4=O)c3C[C@H]2CN1C(=O)c1ccccc1 | inactive: -0.954% | – |
| COc1ccc(/C=C2\COc3ccccc3C2=O)cc1OC | – | inconclusive: 29.1 µM [inhibitor, single point] |
| O=C(COC(=O)CC(c1ccccc1)c1ccccc1)NCc1ccc(Cl)cc1 | – | inconclusive: 29.1 µM [inhibitor, single point] |
| CCOc1ccc(CCN2C(=S)N([C@@H](Cc3ccc(O)cc3)CN3CCC[C@@H]3CN3C(=S)NC[C@@H]3CC(C)C)C[C@@H]2Cc2ccc(O)cc2)cc1 | – | active: 11.6 µM |
| CC[C@]12c3[nH]c4ccc(Cl)cc4c3CCN1C(=O)[C@@H](CC(=O)NCC13CC4CC(CC(C4)C1)C3)C[C@@H]2C(=O)N1CCN(C(=O)c2ccco2)CC1 | – | inconclusive: 29.1 µM [inhibitor, single point] |
| COc1cccc(-c2cnc3c(NC=O)cc(-c4cccc(NC(C)=O)c4)cn23)c1 | – | inconclusive: 29.1 µM [inhibitor, single point] |
| O=C(NCc1ccc2c(c1)OCO2)c1cc([N+](=O)[O-])ccc1N1CCCCC1 | inactive: -4.79% | – |
| O=C1C(Nc2ccc(O)cc2)=C/C(=N/S(=O)(=O)c2cccs2)c2ccccc21 | – | active: 1.03 µM |
| COc1cc(/C=C/C(=O)c2ccc([N+](=O)[O-])o2)ccc1O | – | active: 8.2 µM |
| CC(=O)OC(C)(C)/C=C/C(=O)[C@](C)(O)C1[C@H](O)C[C@@]2(C)C3CC=C4C(C=C(O[C@@H]5O[C@H](CO)[C@@H](O)[C@H](O)[C@H]5O)C(=O)C4(C)C)[C@]3(C)C(=O)C[C@]12C (some centres undefined) | – | inconclusive: 18.4 µM [inhibitor, partial curve] |
| C/C(=N\NC(=O)C1COc2ccccc2O1)c1ccccn1 (centres undefined) | inactive: -27.2% | – |
| COc1ccc(/C=C/C(=O)c2ccccc2)cc1Cn1nnc2ccccc21 | – | active: 23.1 µM |

| SMILES | activity, negative = cytotoxicity | Potency |
| --- | --- | --- |
| CN(c1ccc(F)cc1)S(=O)(=O)c1ccc(Cl)c(C(=O)Nc2ccc3c(c2)CCC3)c1 | inactive: -11.6% | – |
| COc1ccc(CNC(=O)c2c(C)oc3c2C(=O)c2ccccc2C3=O)cc1 | – | active: 1.03 µM |
| CN(Cc1ccccc1)S(=O)(=O)c1ccc(NC(=S)NC(=O)C2CCCCC2)cc1 | – | inconclusive: 18.4 µM [inhibitor, partial curve, poor fit] |
| COc1ccc(-c2coc3c(C(=O)NCC(C)C)cccc23)c(C)c1 | – | inconclusive: 20.6 µM [inhibitor, single point] |
| CS(=O)(=O)Nc1ccccc1C(=O)Nc1cc(Cl)cc(Cl)c1 | – | inconclusive: 6.51 µM [inhibitor, partial curve] |
| NC(=O)c1oc2ccccc2c1NC(=O)c1ccc([N+](=O)[O-])o1 | – | active: 23.1 µM |
| COc1cc(NC(=O)c2cc3ccccc3cc2O)c(OC)cc1Cl | – | active: 6.51 µM |
| CCOc1ccc(NC(=O)CSc2ncc(-c3ccc(F)cc3)n2Cc2ccco2)cc1 | – | inconclusive: 23.1 µM [inhibitor, single point] |
| CCn1c(=O)c(C(=O)CN2CCN(S(=O)(=O)c3cc(C)ccc3C)CC2)c(N)n(Cc2ccccc2)c1=O | – | inconclusive: 29.1 µM [inhibitor, single point] |
| Cc1cccc(NS(=O)(=O)c2ccc(-c3cnc(C4CC4)o3)cc2)c1C | – | inconclusive: 20.6 µM [inhibitor, partial curve, poor fit] |
| COc1ccc(-c2cc(-c3ccccc3O)[nH]n2)cc1 | – | inconclusive: 18.4 µM [inhibitor, single point] |
| COc1ccc(-c2nc3c4ccccc4ccn3c2Cc2ccc(C)cc2)cc1OC | inactive: -17% | – |
| CCCc1nnc(NC(=O)C(CC)OC(=O)c2cc(C)nc3ccccc23)s1 (centres undefined) | inactive: 1.43% | – |
| Cc1cc(C)nc(/N=C(\N)Nc2ccccc2-c2ccccc2)n1 | – | inconclusive: 18.4 µM [inhibitor, single point] |
| NCCCNc1nc(N)c([N+](=O)[O-])c(NC2CCCCC2)n1 | – | inconclusive: 23.1 µM [inhibitor, single point] |
| CC(C)C[C@@H](CN1CCCC1CN1C(=S)NC[C@@H]1Cc1ccc(O)cc1)N1C[C@H](Cc2ccc(O)cc2)N(CC2CCCCC2)C1=S (some centres undefined) | – | inconclusive: 20.6 µM [inhibitor, single point] |
| CC(=O)Nc1ncnc2c1c(-c1ccc(Cl)cc1)nn2C(C)(C)C | – | inconclusive: 18.4 µM [inhibitor, single point] |
| CCOc1c(Cl)cc(/C=N/NC(N)=S)cc1OC | inactive: 5.69% | – |
| CS(=O)(=O)c1ccc(C(=O)OCC(=O)NC(=O)C2CCCCC2)cc1[N+](=O)[O-] | – | inconclusive: 20.6 µM [inhibitor, single point] |

Quoted from the listing.
Potency, `COc1ccc(-c2cc(-c3ccccc3O)[nH]n2)cc1` is entered as inconclusive: 18.4 µM [inhibitor, single point]
Potency, `CC(=O)Nc1ncnc2c1c(-c1ccc(Cl)cc1)nn2C(C)(C)C` is entered as inconclusive: 18.4 µM [inhibitor, single point]
